In the supplement of paper PMC10849652:
The other results are listed elsewhere or left out.

By UniProt entry, the sequences of proteins in these tests, tags left out. Where a name states a change or a piece, a line headed by the entry shows the natural chain unless it says otherwise.
UniProt P49760, whole entry, looked up: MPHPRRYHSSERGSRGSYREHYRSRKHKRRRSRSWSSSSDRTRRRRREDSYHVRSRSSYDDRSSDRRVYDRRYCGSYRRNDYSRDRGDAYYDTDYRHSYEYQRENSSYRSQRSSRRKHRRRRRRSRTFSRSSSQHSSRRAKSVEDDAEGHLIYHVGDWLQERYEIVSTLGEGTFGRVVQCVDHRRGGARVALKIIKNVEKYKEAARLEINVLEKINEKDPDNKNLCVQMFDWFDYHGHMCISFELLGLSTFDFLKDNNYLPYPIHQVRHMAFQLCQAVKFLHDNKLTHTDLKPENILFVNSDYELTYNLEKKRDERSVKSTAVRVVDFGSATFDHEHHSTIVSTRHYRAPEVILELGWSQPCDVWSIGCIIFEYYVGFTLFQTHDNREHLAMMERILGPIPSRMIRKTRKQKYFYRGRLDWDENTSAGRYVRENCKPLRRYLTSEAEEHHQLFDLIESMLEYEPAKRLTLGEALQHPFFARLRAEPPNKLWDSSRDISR
UniProt Q99967: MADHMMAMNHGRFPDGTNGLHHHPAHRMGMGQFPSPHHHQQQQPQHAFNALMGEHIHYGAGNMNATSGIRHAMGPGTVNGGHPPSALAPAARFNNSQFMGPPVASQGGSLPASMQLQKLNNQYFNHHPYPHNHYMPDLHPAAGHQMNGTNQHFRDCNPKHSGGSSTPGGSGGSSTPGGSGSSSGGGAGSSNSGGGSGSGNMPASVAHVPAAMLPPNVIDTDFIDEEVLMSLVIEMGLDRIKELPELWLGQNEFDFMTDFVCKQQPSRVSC
UniProt Q96AJ1: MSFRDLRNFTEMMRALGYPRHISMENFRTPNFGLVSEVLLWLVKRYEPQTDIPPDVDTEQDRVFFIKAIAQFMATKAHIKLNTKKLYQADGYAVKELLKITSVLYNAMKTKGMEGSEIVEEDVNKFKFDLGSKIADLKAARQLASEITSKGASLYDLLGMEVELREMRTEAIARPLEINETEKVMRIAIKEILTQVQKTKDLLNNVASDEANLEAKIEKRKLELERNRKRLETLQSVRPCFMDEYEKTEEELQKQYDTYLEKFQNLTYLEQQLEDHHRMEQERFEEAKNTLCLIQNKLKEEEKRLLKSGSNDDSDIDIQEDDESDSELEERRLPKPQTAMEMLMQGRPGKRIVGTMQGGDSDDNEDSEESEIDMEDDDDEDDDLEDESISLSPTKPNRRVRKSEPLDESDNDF
UniProt P51797: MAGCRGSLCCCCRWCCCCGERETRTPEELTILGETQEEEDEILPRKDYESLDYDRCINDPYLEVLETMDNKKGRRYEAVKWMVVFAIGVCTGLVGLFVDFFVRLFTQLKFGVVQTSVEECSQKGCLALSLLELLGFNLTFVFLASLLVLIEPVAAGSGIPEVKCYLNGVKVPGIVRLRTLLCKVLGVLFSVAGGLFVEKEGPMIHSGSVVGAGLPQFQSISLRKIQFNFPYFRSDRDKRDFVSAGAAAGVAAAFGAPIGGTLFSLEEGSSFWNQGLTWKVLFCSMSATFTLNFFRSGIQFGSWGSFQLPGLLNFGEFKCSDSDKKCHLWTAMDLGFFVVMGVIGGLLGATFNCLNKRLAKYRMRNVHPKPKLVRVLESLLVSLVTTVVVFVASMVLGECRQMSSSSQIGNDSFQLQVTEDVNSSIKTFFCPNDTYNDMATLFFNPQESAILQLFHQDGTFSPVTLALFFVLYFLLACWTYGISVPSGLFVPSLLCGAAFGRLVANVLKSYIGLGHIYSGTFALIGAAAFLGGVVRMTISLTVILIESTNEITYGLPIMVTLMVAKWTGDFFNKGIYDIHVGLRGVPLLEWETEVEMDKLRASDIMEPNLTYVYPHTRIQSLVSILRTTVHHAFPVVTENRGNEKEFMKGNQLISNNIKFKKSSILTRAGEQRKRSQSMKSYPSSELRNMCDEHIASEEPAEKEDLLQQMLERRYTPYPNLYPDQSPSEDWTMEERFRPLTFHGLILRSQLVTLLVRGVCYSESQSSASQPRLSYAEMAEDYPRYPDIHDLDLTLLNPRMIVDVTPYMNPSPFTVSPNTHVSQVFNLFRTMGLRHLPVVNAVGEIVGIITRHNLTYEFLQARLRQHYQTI
UniProt Q14677: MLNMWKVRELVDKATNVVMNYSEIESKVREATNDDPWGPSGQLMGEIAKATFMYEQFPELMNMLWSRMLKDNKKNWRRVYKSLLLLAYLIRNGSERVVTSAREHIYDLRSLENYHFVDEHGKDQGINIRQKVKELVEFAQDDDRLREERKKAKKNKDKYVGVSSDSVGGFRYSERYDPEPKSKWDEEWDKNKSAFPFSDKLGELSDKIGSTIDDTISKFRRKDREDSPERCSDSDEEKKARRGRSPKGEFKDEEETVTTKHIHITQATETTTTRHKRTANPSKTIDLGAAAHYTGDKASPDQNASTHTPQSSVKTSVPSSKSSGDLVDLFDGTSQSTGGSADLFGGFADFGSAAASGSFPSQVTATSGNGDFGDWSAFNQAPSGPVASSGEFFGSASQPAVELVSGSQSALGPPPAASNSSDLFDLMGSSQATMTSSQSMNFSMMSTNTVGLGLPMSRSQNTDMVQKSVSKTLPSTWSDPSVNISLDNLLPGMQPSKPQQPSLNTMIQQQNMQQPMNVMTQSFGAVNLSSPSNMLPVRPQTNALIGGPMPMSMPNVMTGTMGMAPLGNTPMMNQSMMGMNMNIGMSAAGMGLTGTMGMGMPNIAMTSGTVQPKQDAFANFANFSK
UniProt Q86X95: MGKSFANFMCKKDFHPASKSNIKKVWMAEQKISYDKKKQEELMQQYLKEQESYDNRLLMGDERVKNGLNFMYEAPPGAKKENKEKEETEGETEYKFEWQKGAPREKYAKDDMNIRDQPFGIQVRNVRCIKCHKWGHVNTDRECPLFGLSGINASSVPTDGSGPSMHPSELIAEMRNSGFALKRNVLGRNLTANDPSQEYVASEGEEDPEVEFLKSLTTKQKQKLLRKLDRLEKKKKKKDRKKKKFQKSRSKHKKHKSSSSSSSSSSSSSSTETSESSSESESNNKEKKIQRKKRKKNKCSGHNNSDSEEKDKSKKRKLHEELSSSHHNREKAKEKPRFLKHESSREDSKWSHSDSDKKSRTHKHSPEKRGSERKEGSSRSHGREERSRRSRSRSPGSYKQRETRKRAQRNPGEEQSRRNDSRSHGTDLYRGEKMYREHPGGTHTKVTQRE
UniProt Q9UBR5: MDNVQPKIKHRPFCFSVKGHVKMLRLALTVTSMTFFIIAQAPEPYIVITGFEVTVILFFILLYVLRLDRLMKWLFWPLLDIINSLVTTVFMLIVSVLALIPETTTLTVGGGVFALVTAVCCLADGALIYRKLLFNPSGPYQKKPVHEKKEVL
UniProt Q9Y4C5: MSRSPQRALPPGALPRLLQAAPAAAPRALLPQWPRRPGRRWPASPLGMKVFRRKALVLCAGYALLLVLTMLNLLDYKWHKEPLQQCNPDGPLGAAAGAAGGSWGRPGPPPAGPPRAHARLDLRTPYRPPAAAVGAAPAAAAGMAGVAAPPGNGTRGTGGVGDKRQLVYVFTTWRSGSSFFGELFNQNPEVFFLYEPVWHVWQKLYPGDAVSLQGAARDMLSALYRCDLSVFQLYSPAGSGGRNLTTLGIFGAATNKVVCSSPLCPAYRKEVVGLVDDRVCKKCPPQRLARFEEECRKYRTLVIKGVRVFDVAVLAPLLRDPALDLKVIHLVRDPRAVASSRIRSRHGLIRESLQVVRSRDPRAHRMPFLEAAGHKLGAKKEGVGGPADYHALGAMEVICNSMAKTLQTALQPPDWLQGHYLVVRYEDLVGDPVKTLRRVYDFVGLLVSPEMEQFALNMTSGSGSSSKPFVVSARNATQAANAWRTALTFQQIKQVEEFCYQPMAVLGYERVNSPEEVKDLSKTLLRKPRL
UniProt P49761: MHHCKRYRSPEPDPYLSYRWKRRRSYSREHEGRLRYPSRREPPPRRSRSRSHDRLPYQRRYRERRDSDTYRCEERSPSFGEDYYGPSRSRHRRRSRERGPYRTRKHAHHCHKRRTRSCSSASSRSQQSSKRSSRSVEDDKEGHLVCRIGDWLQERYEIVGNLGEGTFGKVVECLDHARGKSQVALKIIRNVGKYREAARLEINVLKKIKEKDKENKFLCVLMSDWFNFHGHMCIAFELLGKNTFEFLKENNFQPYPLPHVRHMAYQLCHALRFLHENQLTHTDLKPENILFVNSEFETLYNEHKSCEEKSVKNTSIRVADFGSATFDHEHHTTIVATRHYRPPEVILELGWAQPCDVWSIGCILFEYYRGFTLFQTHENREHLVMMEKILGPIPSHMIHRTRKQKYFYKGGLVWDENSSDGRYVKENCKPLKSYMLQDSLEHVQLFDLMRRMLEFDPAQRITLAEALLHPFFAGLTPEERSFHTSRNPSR
UniProt Q07065: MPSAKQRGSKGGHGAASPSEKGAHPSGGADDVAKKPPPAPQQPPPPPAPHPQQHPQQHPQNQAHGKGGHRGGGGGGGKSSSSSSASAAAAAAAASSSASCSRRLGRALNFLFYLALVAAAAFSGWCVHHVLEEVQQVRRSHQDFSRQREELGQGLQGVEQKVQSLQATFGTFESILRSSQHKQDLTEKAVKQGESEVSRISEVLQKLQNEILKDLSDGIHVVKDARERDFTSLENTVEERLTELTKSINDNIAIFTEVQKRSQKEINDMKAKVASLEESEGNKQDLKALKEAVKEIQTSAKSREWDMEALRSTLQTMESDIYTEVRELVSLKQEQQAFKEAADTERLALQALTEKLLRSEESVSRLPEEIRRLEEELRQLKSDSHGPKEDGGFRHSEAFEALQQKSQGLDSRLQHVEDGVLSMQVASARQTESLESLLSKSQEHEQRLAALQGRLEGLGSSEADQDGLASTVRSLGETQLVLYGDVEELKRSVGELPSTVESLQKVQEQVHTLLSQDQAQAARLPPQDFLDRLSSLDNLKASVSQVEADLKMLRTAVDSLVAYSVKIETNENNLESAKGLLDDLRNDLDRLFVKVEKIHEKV
UniProt P51788: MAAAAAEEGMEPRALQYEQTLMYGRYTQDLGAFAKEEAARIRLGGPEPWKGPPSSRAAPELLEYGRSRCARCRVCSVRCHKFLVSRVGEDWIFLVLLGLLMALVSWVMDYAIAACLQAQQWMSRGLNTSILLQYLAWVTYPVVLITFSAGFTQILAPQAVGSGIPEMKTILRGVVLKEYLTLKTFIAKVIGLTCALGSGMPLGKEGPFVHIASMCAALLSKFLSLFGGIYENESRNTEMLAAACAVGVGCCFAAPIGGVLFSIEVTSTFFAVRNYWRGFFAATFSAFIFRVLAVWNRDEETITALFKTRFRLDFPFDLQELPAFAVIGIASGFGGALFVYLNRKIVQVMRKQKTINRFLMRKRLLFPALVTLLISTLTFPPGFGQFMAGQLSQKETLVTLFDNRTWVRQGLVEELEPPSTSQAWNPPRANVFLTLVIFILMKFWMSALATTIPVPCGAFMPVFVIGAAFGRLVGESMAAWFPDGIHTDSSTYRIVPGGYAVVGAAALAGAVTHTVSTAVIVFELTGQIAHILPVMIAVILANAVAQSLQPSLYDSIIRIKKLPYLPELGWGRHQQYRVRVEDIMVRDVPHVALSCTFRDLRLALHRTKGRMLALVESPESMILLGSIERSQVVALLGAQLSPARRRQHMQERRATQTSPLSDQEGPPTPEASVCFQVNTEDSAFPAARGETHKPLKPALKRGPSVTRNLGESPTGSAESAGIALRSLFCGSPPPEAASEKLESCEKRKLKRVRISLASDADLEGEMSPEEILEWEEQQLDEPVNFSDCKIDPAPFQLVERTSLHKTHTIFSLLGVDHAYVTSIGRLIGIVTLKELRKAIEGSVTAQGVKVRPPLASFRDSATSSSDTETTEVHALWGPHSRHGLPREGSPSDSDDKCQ
UniProt Q96NY7: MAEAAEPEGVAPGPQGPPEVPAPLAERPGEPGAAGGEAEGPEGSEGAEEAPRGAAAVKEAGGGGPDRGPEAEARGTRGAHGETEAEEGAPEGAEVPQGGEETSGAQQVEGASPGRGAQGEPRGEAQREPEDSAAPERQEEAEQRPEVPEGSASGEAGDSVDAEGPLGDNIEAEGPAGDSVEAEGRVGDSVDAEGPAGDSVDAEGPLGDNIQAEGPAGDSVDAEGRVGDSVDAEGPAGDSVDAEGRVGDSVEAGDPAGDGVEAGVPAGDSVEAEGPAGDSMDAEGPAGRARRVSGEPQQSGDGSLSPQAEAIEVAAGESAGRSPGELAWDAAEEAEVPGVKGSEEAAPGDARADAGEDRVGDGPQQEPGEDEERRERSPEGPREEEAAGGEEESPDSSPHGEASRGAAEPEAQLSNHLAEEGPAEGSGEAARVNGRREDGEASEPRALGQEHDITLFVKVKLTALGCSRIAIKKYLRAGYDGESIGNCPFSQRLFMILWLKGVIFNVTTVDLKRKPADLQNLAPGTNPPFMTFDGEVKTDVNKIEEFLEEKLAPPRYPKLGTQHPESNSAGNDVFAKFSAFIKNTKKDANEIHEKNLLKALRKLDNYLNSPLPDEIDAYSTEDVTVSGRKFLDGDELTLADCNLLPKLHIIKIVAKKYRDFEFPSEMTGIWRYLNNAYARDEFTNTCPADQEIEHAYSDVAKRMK

Compound: Cc1nc(Nc2ncc(C(=O)Nc3c(C)cccc3Cl)s2)cc(N2CCN(CCO)CC2)n1 [dasatinib]
Assay: log2 fold change, soluble protein after heating vs DMSO (PISA); higher = thermal stabilisation; K562 lysate, 10 uM; active = over 0.2 and 3.5 SD of the protein, either way, in both replicates (recomputed)
Outline: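 K562 pellets were dounce-homogenised in PBS pH 7.4 with 1 mM MgCl2, and the crude extract at 1 mg/mL protein was treated with 10 μM compound for 30 min. Aliquots were heated for 3 min across 48°C-58°C, pooled, and brought to 0.5% NP-40 at 4°C; soluble protein was the supernatant after 21,000xg for 90 min. Soluble protein was quantified by TMTpro 16plex LC-MS/MS with channel sums equalised, and reported as log2 fold change in thermal stability against DMSO controls, with values from duplicates.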

log2 fold change, inactive:
CHTOP isoform 3 (UniProt Q9Y3Y2) -0.07
CLK2 (UniProt P49760) -0.022
CITED2 (UniProt Q99967) -0.061
CHPF2 (UniProt Q9P2E5) -0.179
CLUAP1 (UniProt Q96AJ1) 0.015
CLCN6 isoform 5 (UniProt P51797) -0.073
CLINT1 (UniProt Q14677) 0.005
CIR1 (UniProt Q86X95) -0.171
CKLF (UniProt Q9UBR5) -0.265
CHCHD6 (UniProt Q9BRQ6) -0.008
CLIP2 (UniProt Q9UDT6) -0.018
CHST2 (UniProt Q9Y4C5) 0.25
CLK3 (UniProt P49761) 0.064
CHPF (UniProt Q8IZ52) 0.097
CHMP4A (UniProt H0YIN6) 0.294
CKAP4 (UniProt Q07065) 0.118
CLCN2 (UniProt P51788) -0.003
CLIC6 (UniProt Q96NY7) 0.039

Fetched one by one from the list above:
log2 fold change, inactive:
CKLF (UniProt Q9UBR5) -0.265
CLINT1 (UniProt Q14677) 0.005
